Laboratory results: PubChem BioAssay AID1508597 (Cure First, 2020)

- Screen: 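Genes whose silencing sensitises or protects ovarian cancer cells against rucaparib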 (primary screen)
- System: human ovarian carcinoma lines grown from tumours: OCI-P5x (papillary serous) and OCI-C5x (clear cell)
- Reagent: siRNA pool against human genes, 1.25 pmol siRNA per well
- Duration: 72 h or 96 h, depending on the cell culture
- Conditions: rucaparib 20 µM (about IC30) or vehicle, present until read-out
- Rucaparib or vehicle: Rucaparib
- Cell line: OCI-P5x (serous)
- Measurement: 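Luminescent ATP-based viability assay read 72 or 96 h after transfection, depending on culture, given as normalised percent viability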
- Reading the numbers: viability, normalised: higher = more viable cells remaining
- Hit rule: 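Active when normalised viability falls below 80 percent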
- Meaning of the calls: active = viability under 80%; inactive = viability 80% or more
Shown is an unselected part of the about 2,100 reagents, in one setting of the screen. 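Calls flag viability under 80% in either arm, not effects specific to rucaparib; the reference for percent is not stated.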 Reagents against one gene are numbered here. A reagent listed more than once was tested more than once; the source does not tell the runs apart. No sequences are given here. The record does not give: the 100% reference.

{"Gene":"SOX14 (SRY-box transcription factor 14)","pool no.":1,"technical replicate":"1","viability, normalised (%)":45.4,"Outcome":"active"}
{"Gene":"SOX14 (SRY-box transcription factor 14)","pool no.":1,"technical replicate":"2","viability, normalised (%)":62.6,"Outcome":"active"}
{"Gene":"SOX14 (SRY-box transcription factor 14)","pool no.":1,"technical replicate":"3","viability, normalised (%)":60.9,"Outcome":"active"}
{"Gene":"MERTK (MER proto-oncogene, tyrosine kinase)","pool no.":1,"technical replicate":"1","viability, normalised (%)":55.4,"Outcome":"active"}
{"Gene":"MERTK (MER proto-oncogene, tyrosine kinase)","pool no.":1,"technical replicate":"2","viability, normalised (%)":69,"Outcome":"active"}
{"Gene":"MERTK (MER proto-oncogene, tyrosine kinase)","pool no.":1,"technical replicate":"3","viability, normalised (%)":65.6,"Outcome":"active"}
{"Gene":"EPC2 (enhancer of polycomb 2)","pool no.":1,"technical replicate":"1","viability, normalised (%)":64.3,"Outcome":"active"}
{"Gene":"EPC2 (enhancer of polycomb 2)","pool no.":1,"technical replicate":"2","viability, normalised (%)":78.4,"Outcome":"active"}
{"Gene":"EPC2 (enhancer of polycomb 2)","pool no.":1,"technical replicate":"3","viability, normalised (%)":77.6,"Outcome":"active"}
{"Gene":"AK4 (adenylate kinase 4)","pool no.":1,"technical replicate":"1","viability, normalised (%)":81,"Outcome":"inactive"}
{"Gene":"AK4 (adenylate kinase 4)","pool no.":1,"technical replicate":"2","viability, normalised (%)":69,"Outcome":"active"}
{"Gene":"AK4 (adenylate kinase 4)","pool no.":1,"technical replicate":"3","viability, normalised (%)":69.1,"Outcome":"active"}
{"Gene":"L3MBTL2 (L3MBTL histone methyl-lysine binding protein 2)","pool no.":1,"technical replicate":"1","viability, normalised (%)":62.3,"Outcome":"active"}
{"Gene":"L3MBTL2 (L3MBTL histone methyl-lysine binding protein 2)","pool no.":1,"technical replicate":"2","viability, normalised (%)":69.1,"Outcome":"active"}
{"Gene":"L3MBTL2 (L3MBTL histone methyl-lysine binding protein 2)","pool no.":1,"technical replicate":"3","viability, normalised (%)":63.3,"Outcome":"active"}
{"Gene":"SOX1 (SRY-box transcription factor 1)","pool no.":1,"technical replicate":"1","viability, normalised (%)":34,"Outcome":"active"}
{"Gene":"SOX1 (SRY-box transcription factor 1)","pool no.":1,"technical replicate":"2","viability, normalised (%)":39.8,"Outcome":"active"}
{"Gene":"SOX1 (SRY-box transcription factor 1)","pool no.":1,"technical replicate":"3","viability, normalised (%)":58,"Outcome":"active"}
{"Gene":"DCK (deoxycytidine kinase)","pool no.":1,"technical replicate":"1","viability, normalised (%)":101,"Outcome":"inactive"}
{"Gene":"DCK (deoxycytidine kinase)","pool no.":1,"technical replicate":"1","viability, normalised (%)":90.1,"Outcome":"inactive"}
{"Gene":"DCK (deoxycytidine kinase)","pool no.":1,"technical replicate":"2","viability, normalised (%)":91.6,"Outcome":"inactive"}
{"Gene":"DCK (deoxycytidine kinase)","pool no.":1,"technical replicate":"2","viability, normalised (%)":111,"Outcome":"inactive"}
{"Gene":"DCK (deoxycytidine kinase)","pool no.":1,"technical replicate":"3","viability, normalised (%)":64.8,"Outcome":"active"}
{"Gene":"DCK (deoxycytidine kinase)","pool no.":1,"technical replicate":"3","viability, normalised (%)":122,"Outcome":"inactive"}
{"Gene":"HDGF (heparin binding growth factor)","pool no.":1,"technical replicate":"1","viability, normalised (%)":97.1,"Outcome":"inactive"}
{"Gene":"HDGF (heparin binding growth factor)","pool no.":1,"technical replicate":"2","viability, normalised (%)":87.4,"Outcome":"inactive"}
{"Gene":"HDGF (heparin binding growth factor)","pool no.":1,"technical replicate":"3","viability, normalised (%)":77.9,"Outcome":"active"}
{"Gene":"SMARCD3 (SWI/SNF related BAF chromatin remodeling complex subunit D3)","pool no.":1,"technical replicate":"1","viability, normalised (%)":54.5,"Outcome":"active"}
{"Gene":"SMARCD3 (SWI/SNF related BAF chromatin remodeling complex subunit D3)","pool no.":1,"technical replicate":"2","viability, normalised (%)":51.7,"Outcome":"active"}
{"Gene":"SMARCD3 (SWI/SNF related BAF chromatin remodeling complex subunit D3)","pool no.":1,"technical replicate":"3","viability, normalised (%)":52.1,"Outcome":"active"}
{"Gene":"MECOM (MDS1 and EVI1 complex locus)","pool no.":1,"technical replicate":"1","viability, normalised (%)":63.5,"Outcome":"active"}
{"Gene":"MECOM (MDS1 and EVI1 complex locus)","pool no.":1,"technical replicate":"2","viability, normalised (%)":84.5,"Outcome":"inactive"}
{"Gene":"MECOM (MDS1 and EVI1 complex locus)","pool no.":1,"technical replicate":"3","viability, normalised (%)":85,"Outcome":"inactive"}
{"Gene":"MECOM (MDS1 and EVI1 complex locus)","pool no.":2,"technical replicate":"1","viability, normalised (%)":54.9,"Outcome":"active"}
{"Gene":"MECOM (MDS1 and EVI1 complex locus)","pool no.":2,"technical replicate":"2","viability, normalised (%)":49.3,"Outcome":"active"}
{"Gene":"MECOM (MDS1 and EVI1 complex locus)","pool no.":2,"technical replicate":"3","viability, normalised (%)":53.7,"Outcome":"active"}

Quoted from above, 4 entries:
{"Gene":"AK4 (adenylate kinase 4)","pool no.":1,"technical replicate":"2","viability, normalised (%)":69,"Outcome":"active"}
{"Gene":"AK4 (adenylate kinase 4)","pool no.":1,"technical replicate":"3","viability, normalised (%)":69.1,"Outcome":"active"}
{"Gene":"L3MBTL2 (L3MBTL histone methyl-lysine binding protein 2)","pool no.":1,"technical replicate":"1","viability, normalised (%)":62.3,"Outcome":"active"}
{"Gene":"L3MBTL2 (L3MBTL histone methyl-lysine binding protein 2)","pool no.":1,"technical replicate":"2","viability, normalised (%)":69.1,"Outcome":"active"}
